Values from PubChem BioAssay AID743121 (NCATS, 2013).
In all, the deposit lists about 26,000 reagents; shown is an unselected part. 167 of them (0.63%) were called active. 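Calls are per gene from RSA p-values that are not deposited; an individual active-marked siRNA can sensitise only weakly.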 Entries without a mark were called inactive. The numbers tell different reagents against one gene apart.

Aim: 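Knock-downs that sensitise breast cancer cells to camptothecin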 (primary screen)
System: MDA-MB-231 cells, a human breast cancer line
Knock-down reagent: single siRNA against human genes, 20 nM siRNA (0.8 pmol per well)
Time to read-out: 120 h (drug added 48 h after transfection, read 72 h later)
Treatment: camptothecin 20 nM (about EC30) for 72 h; vehicle 0.1% DMSO in parallel plates
Read-out: 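Cell viability by ATP luminescence (CellTiter-Glo) as % of non-targeting siRNA wells, and the log2 ratio of viability without drug over viability with camptothecin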
Direction: log2 vehicle/camptothecin viability: higher = stronger sensitisation to camptothecin; viability with camptothecin and viability without drug: higher = more viable cells
Rule for the call: 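Active genes have an RSA gene-level p-value below 0.001, computed from the ratios of their separate siRNAs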

Gene,reagent no.,log2 vehicle/camptothecin viability,viability with camptothecin (% of control),viability without drug (% of control)
ADAMTS9 (GeneID 56999),1,0.243,74.7,88.3
ADAMTS9 (GeneID 56999),2,0.265,34.9,41.9
ADAMTS9 (GeneID 56999),3,-0.0294,112,110
ADAMTS9 (GeneID 56999),4,-0.168,101,90.1
NTRK2 (GeneID 4915),1,0.152,96.1,107
NTRK2 (GeneID 4915),2,-0.0228,93.8,92.3
NTRK2 (GeneID 4915),3,0.0265,98.1,100
NTRK2 (GeneID 4915),4,-0.195,82.3,71.9
CXCR3 (GeneID 2833),1,0.268,74.2,89.4
CXCR3 (GeneID 2833),2,0.164,34.8,38.9
CXCR3 (GeneID 2833),3,0.265,37.4,44.9
CXCR3 (GeneID 2833),4,-0.0959,94.1,88
HNF4G (GeneID 3174),1,-0.127,104,95.1
HNF4G (GeneID 3174),2,0.632,50.9,78.9
HNF4G (GeneID 3174),3,-0.335,81,64.2
HNF4G (GeneID 3174),4,-0.644,47.4,30.3
NDN (GeneID 4692),1,0.512,39.3,56.1
NDN (GeneID 4692),2,-0.41,65.1,49
NDN (GeneID 4692),3,-0.487,83.2,59.4
PHF10 (GeneID 55274),1,-0.0952,87,81.5
PHF10 (GeneID 55274),2,-0.0353,89.4,87.2
PHF10 (GeneID 55274),3,0.0322,38.2,39.1
PHF10 (GeneID 55274),4,-0.0418,66.1,64.2
PGF (GeneID 5228),1,-0.857,47.9,26.4
PGF (GeneID 5228),2,-0.0196,103,102
PGF (GeneID 5228),3,-0.169,90.4,80.4
PGF (GeneID 5228),4,-0.437,102,75.4
GPR146 (GeneID 115330),1,-0.527,89.8,62.3
GPR146 (GeneID 115330),2,-0.707,55.2,33.8
GPR146 (GeneID 115330),3,-0.603,42.2,27.8
GPR146 (GeneID 115330),4,-0.112,88.7,82.1

Look-ups from above.
Result for ADAMTS9 (GeneID 56999) #1 in “log2 vehicle/camptothecin viability”: 0.243
PHF10 (GeneID 55274) #3, log2 vehicle/camptothecin viability: 0.0322
Result of CXCR3 (GeneID 2833) #1 in “viability with camptothecin (% of control)”: 74.2
Value for NDN (GeneID 4692) #2 under “viability without drug (% of control)”: 49
ADAMTS9 (GeneID 56999) #2, viability with camptothecin (% of control) = 34.9
